Measurements reported in PubChem BioAssay AID1259424 (University of Nebraska Medical Center, 2018).
The whole screen tested about 14,000 reagents; this is a part drawn at random. 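Higher correlation or smaller distance means closer resemblance to KSR1 loss; control wells, including KSR1 knockdowns, recur on many plates.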 Not stated in the record: the time to read-out.

Assay: 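Find knockdowns that reproduce the expression shifts seen after KSR1 loss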 (primary screen)
Cell system: human HCT116 colon cancer cells
Knock-down reagent: siRNA pool against human genes, 50 nM
Measured: 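Six signature mRNAs by branched-DNA multiplex assay, scaled to two housekeeping genes and non-targeting median, log2; matched to mean KSR1 knockdown profile by Pearson correlation and euclidean distance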
Scale: mean correlation with KSR1 profile and KSR1 correlation: higher = expression change more like KSR1 knockdown; mean distance from KSR1 profile: higher = expression change less like KSR1 knockdown

gene knocked down | mean correlation with KSR1 profile | mean distance from KSR1 profile | KSR1 correlation, replicate 1 | KSR1 correlation, replicate 2 | KSR1 correlation, replicate 3
MDGA1 | 0.0457 | 2.64 | -0.0303 | 0.0163 | -0.256
KLHL42 | -0.334 | 2.75 | -0.283 | -0.561 | -0.339
BFSP2 | -0.0303 | 1.54 | -0.0658 | -0.141 | 0.00661
SDF2 | -0.311 | 1.97 | -0.388 | -0.482 | 0.0144
TTN | 0.041 | 1.98 | 0.23 | 0.0181 | -0.223
CACNA1G | -0.531 | 2.39 | -0.379 | -0.553 | -0.521
LGALS1 | 0.289 | 2.87 | 0.352 | 0.135 | 0.289
SULT1E1 | 0.291 | 1.15 | 0.121 | 0.293 | 0.391
SYPL1 | 0.419 | 0.624 | 0.476 | 0.00569 | 0.392
NLGN4X | -0.716 | 2.99 | -0.623 | -0.664 | -0.616
PCCB | -0.123 | 3.25 | -0.113 | -0.125 | -0.203
ASF1B | -0.45 | 2.46 | -0.547 | -0.443 | -0.33
ELAC1 | -0.182 | 1.63 | -0.172 | -0.547 | -0.152
BATF | 0.921 | 1.2 | 0.536 | 0.7 | 0.969
STK17B | 0.217 | 1.99 | 0.367 | 0.272 | 0.00967
SACM1L | -0.706 | 2.41 | -0.643 | -0.775 | -0.608
PCDHA9 | -0.313 | 1.95 | -0.828 | -0.417 | -0.3
NUP107 | -0.0844 | 1.28 | 0.0549 | -0.119 | 0.5
GATD3 | 0.0584 | 1.38 | -0.169 | 0.158 | 0.0821
FBXO8 | 0.149 | 1.32 | 0.165 | 0.248 | 0.136
ZIC5 | 0.256 | 1.99 | 0.214 | 0.22 | 0.0806
SMUG1 | -0.481 | 1.8 | -0.15 | -0.705 | -0.682
SNRPE | -0.0525 | 3.98 | -0.155 | 0.0184 | -0.0691
GNB2 | -0.349 | 3.96 | -0.319 | -0.385 | -0.345
ZNF184 | -0.365 | 1.34 | -0.0326 | -0.504 | -0.271
CPT1A | -0.0487 | 2.56 | -0.156 | -0.185 | 0.221
REEP2 | -0.644 | 4.07 | -0.837 | -0.499 | 0.307
MLH3 | 0.082 | 1.84 | 0.148 | 0.12 | -0.257
TAF1A | 0.111 | 1.09 | 0.201 | 0.0833 | 0.225
CSF2 | 0.264 | 1.46 | 0.337 | 0.402 | 0.252
IRF5 | 0.0335 | 1.37 | 0.524 | 0.3 | 0.101
APOA4 | 0.279 | 1.65 | 0.23 | 0.225 | 0.203
CYP2C9 | -0.345 | 1.77 | -0.568 | -0.307 | 0.0413
SLC19A3 | 0.141 | 2.31 | -0.132 | 0.179 | 0.203
